Measured values: the supplement of paper PMC8728848
This is one part of the list.

Experiments:
Assay in all cases: glycan array binding signal (z-score within array); higher = stronger binding
Conditions in all cases: glycan notation: IUPAC condensed, linker removed
[1] = biological target: GlcNAc(b1-3)Gal(b1-4)GlcNAc(b1-3)GalNAc
In short: (§1)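 The binding signal is a Z-score computed within each array and averaged over linkers. Arrays of the same protein sequence at different concentrations or buffers were also averaged together. Data originate from 3228 arrays in the Consortium for Functional Glycomics database, kept only where the protein sequence was available.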

[2] = biological target: GlcNAc(b1-3)Gal(b1-4)GlcNAc(b1-3)[GlcNAc(b1-3)Gal(b1-4)GlcNAc(b1-3)]GalNAc
In short: as §1

[3] = biological target: GlcNAc(b1-3)Gal(b1-4)GlcNAc(b1-6)[Gal(b1-3)]GalNAc
In short: as §1

[4] = biological target: GlcNAc(b1-3)Gal(b1-4)GlcNAc(b1-6)[GlcNAc(b1-3)Gal(b1-3)]GalNAc
In short: as §1

[5] = biological target: GlcNAc(b1-3)Gal(b1-4)GlcNAc(b1-6)[GlcNAc(b1-3)]Gal(b1-4)GlcNAc
In short: as §1

GlcNAc(b1-3)GalNAc = biological target: GlcNAc(b1-3)GalNAc
In short: as §1

GlcNAc(b1-3)Man = biological target: GlcNAc(b1-3)Man
In short: as §1

[6] = biological target: GlcNAc(b1-3)[GlcNAc(b1-4)][GlcNAc(b1-6)]GlcNAc
In short: as §1

[7] = biological target: GlcNAc(b1-3)[GlcNAc(b1-6)]Gal(b1-4)GlcNAc
In short: as §1

[8] = biological target: GlcNAc(b1-3)[GlcNAc(b1-6)]GalNAc
In short: as §1

[9] = biological target: GlcNAc(b1-4)Gal(b1-4)GlcNAc
In short: as §1

GlcNAc(b1-4)GlcNAc = biological target: GlcNAc(b1-4)GlcNAc
In short: as §1

[10] = biological target: GlcNAc(b1-4)GlcNAc(b1-4)GlcNAc
In short: as §1

[11] = biological target: GlcNAc(b1-4)GlcNAc(b1-4)GlcNAc(b1-4)GlcNAc(b1-4)GlcNAc
In short: as §1

[12] = biological target: GlcNAc(b1-4)GlcNAc(b1-4)GlcNAc(b1-4)GlcNAc(b1-4)GlcNAc(b1-4)GlcNAc
In short: as §1

[13] = biological target: GlcNAc(b1-4)[GlcNAc(b1-6)]GalNAc
In short: as §1

[14] = biological target: GlcNAc(b1-6)Gal(b1-4)GlcNAc
In short: as §1

GlcNAc(b1-6)GalNAc = biological target: GlcNAc(b1-6)GalNAc
In short: as §1

[15] = biological target: GlcNAc6S(b1-3)Gal(b1-4)GlcNAc
In short: as §1

Kdn(a2-3)Gal(b1-3)GalNAc = biological target: Kdn(a2-3)Gal(b1-3)GalNAc
In short: as §1

Kdn(a2-3)Gal(b1-3)GlcNAc = biological target: Kdn(a2-3)Gal(b1-3)GlcNAc
In short: as §1

Kdn(a2-3)Gal(b1-4)Glc = biological target: Kdn(a2-3)Gal(b1-4)Glc
In short: as §1

Kdn(a2-3)Gal(b1-4)GlcNAc = biological target: Kdn(a2-3)Gal(b1-4)GlcNAc
In short: as §1

[16] = biological target: Kdn(a2-3)Gal(b1-4)[Fuc(a1-3)]GlcNAc
In short: as §1

Kdn(a2-6)Gal(b1-4)GlcNAc = biological target: Kdn(a2-6)Gal(b1-4)GlcNAc
In short: as §1

[17] = biological target: Man(a1-2)Man(a1-2)Man(a1-3)Man
In short: as §1

[18] = biological target: Man(a1-2)Man(a1-2)Man(a1-6)[Man(a1-3)]Man
In short: as §1

Man(a1-2)Man(a1-3)Man = biological target: Man(a1-2)Man(a1-3)Man
In short: as §1

[19] = biological target: Man(a1-2)Man(a1-3)[Man(a1-2)Man(a1-6)]Man
In short: as §1

[20] = biological target: Man(a1-2)Man(a1-3)[Man(a1-2)Man(a1-6)]Man(a1-6)[Man(a1-2)Man(a1-2)Man(a1-3)]Man
In short: as §1

[21] = biological target: Man(a1-2)Man(a1-3)[Man(a1-2)Man(a1-6)]Man(a1-6)[Man(a1-2)Man(a1-2)Man(a1-3)]Man(b1-4)GlcNAc(b1-4)GlcNAc
In short: as §1

[22] = biological target: Man(a1-2)Man(a1-3)[Man(a1-6)]Man(a1-6)[Man(a1-2)Man(a1-3)]Man(b1-4)GlcNAc(b1-4)GlcNAc
In short: as §1

[23] = biological target: Man(a1-2)Man(a1-6)[Man(a1-3)]Man(a1-6)[Man(a1-2)Man(a1-2)Man(a1-3)]Man
In short: as §1

[24] = biological target: Man(a1-2)Man(a1-6)[Man(a1-3)]Man(a1-6)[Man(a1-2)Man(a1-2)Man(a1-3)]Man(b1-4)GlcNAc(b1-4)GlcNAc
In short: as §1

Man(a1-3)[Man(a1-6)]Man = biological target: Man(a1-3)[Man(a1-6)]Man
In short: as §1

[25] = biological target: Man(a1-3)[Man(a1-6)]Man(a1-6)[Man(a1-2)Man(a1-3)]Man(b1-4)GlcNAc(b1-4)GlcNAc
In short: as §1

[26] = biological target: Man(a1-3)[Man(a1-6)]Man(a1-6)[Man(a1-3)]Man
In short: as §1

[27] = biological target: Man(a1-3)[Man(a1-6)]Man(a1-6)[Man(a1-3)]Man(b1-4)GlcNAc(b1-4)GlcNAc
In short: as §1

[28] = biological target: Man(a1-3)[Man(a1-6)]Man(b1-4)GlcNAc(b1-4)GlcNAc
In short: as §1

[29] = biological target: Man(a1-3)[Man(a1-6)]Man(b1-4)GlcNAc(b1-4)[Fuc(a1-6)]GlcNAc
In short: as §1

Man(a1-6)Man = biological target: Man(a1-6)Man
In short: as §1

Man(b1-4)GlcNAc = biological target: Man(b1-4)GlcNAc
In short: as §1

MurNAc(b1-4)GlcNAc = biological target: MurNAc(b1-4)GlcNAc
In short: as §1

Neu5Ac(a2-3)Gal = biological target: Neu5Ac(a2-3)Gal
In short: as §1

[30] = biological target: Neu5Ac(a2-3)Gal(b1-3)GalNAc
In short: as §1

B1: Pbx1CASH domain (Cryptococcus neoformans) (protein)
chain: MDETKPLWGNPRADGISLACKDSIVERNVVYDATDGAIVLFGSAGSTVKNNHVYARTRVILGGINLVDYEPWDGDYTNVKVHHNHLYALGRYFKVGIVIGPASWSDDTESVVHSASVTDNEFSGGYWGYGIVVASAKNFEVLRNKVIWDGEQGVARFSGVPGS
glycan array binding signal (z-score) [1]: -0.408
glycan array binding signal (z-score) [2]: -0.542
glycan array binding signal (z-score) [3]: 0.217
glycan array binding signal (z-score) [4]: 0.647
glycan array binding signal (z-score) [5]: 1.15
glycan array binding signal (z-score) (GlcNAc(b1-3)GalNAc): -0.874
glycan array binding signal (z-score) (GlcNAc(b1-3)Man): 0.12
glycan array binding signal (z-score) [6]: -0.226
glycan array binding signal (z-score) [7]: -0.897
glycan array binding signal (z-score) [8]: -0.556
glycan array binding signal (z-score) [9]: -0.389
glycan array binding signal (z-score) (GlcNAc(b1-4)GlcNAc): -0.404
glycan array binding signal (z-score) [10]: -0.165
glycan array binding signal (z-score) [11]: 0.821
glycan array binding signal (z-score) [12]: 0.043
glycan array binding signal (z-score) [13]: -0.808
glycan array binding signal (z-score) [14]: -0.623
glycan array binding signal (z-score) (GlcNAc(b1-6)GalNAc): -0.421
glycan array binding signal (z-score) [15]: -0.031
glycan array binding signal (z-score) (Kdn(a2-3)Gal(b1-3)GalNAc): -0.351
glycan array binding signal (z-score) (Kdn(a2-3)Gal(b1-3)GlcNAc): -0.869
glycan array binding signal (z-score) (Kdn(a2-3)Gal(b1-4)Glc): 0.618
glycan array binding signal (z-score) (Kdn(a2-3)Gal(b1-4)GlcNAc): -0.908
glycan array binding signal (z-score) [16]: 0.887
glycan array binding signal (z-score) (Kdn(a2-6)Gal(b1-4)GlcNAc): 0.385
glycan array binding signal (z-score) [17]: -0.535
glycan array binding signal (z-score) [18]: 0.606
glycan array binding signal (z-score) (Man(a1-2)Man(a1-3)Man): -0.534
glycan array binding signal (z-score) [19]: -0.95
glycan array binding signal (z-score) [20]: -0.112
glycan array binding signal (z-score) [21]: 1.9
glycan array binding signal (z-score) [22]: -0.145
glycan array binding signal (z-score) [23]: -0.129
glycan array binding signal (z-score) [24]: 0.614
glycan array binding signal (z-score) (Man(a1-3)[Man(a1-6)]Man): 0.377
glycan array binding signal (z-score) [25]: 0.737
glycan array binding signal (z-score) [26]: -0.5
glycan array binding signal (z-score) [27]: 0.71
glycan array binding signal (z-score) [28]: 0.022
glycan array binding signal (z-score) [29]: -0.814
glycan array binding signal (z-score) (Man(a1-6)Man): -0.291
glycan array binding signal (z-score) (Man(b1-4)GlcNAc): -0.348
glycan array binding signal (z-score) (MurNAc(b1-4)GlcNAc): -0.487
glycan array binding signal (z-score) (Neu5Ac(a2-3)Gal): -0.64
glycan array binding signal (z-score) [30]: 0.436
